No constants are given. Whether binding was seen depends on the method and setting. Binding seen in cells or lysates may run through a third protein. Some results given as binding are weak or reduced against the parent protein; the word gives no strength.
T1: endogenous FoxM1B protein of mouse liver and mouse embryo fibroblasts (mouse) (UniProt O08696)
T1 sequence (looked up): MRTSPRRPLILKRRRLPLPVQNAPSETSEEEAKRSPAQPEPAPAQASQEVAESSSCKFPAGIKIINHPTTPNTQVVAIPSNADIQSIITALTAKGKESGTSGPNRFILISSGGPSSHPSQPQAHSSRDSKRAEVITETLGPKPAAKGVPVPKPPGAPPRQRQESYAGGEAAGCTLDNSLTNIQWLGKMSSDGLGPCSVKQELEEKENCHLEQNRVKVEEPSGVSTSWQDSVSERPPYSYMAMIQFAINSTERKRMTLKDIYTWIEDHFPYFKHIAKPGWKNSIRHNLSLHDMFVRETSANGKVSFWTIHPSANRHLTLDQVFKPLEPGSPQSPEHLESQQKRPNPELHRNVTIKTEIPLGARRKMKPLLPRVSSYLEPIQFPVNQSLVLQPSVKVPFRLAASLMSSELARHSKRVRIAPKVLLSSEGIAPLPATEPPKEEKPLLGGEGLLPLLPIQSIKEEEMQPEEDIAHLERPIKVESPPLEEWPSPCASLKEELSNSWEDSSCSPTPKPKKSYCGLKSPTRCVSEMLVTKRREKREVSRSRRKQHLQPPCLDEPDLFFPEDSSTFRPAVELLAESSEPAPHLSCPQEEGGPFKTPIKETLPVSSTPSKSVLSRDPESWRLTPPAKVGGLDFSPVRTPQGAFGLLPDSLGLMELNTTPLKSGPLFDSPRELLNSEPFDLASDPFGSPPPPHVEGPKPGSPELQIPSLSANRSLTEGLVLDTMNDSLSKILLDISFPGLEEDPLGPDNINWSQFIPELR

By UniProt entry, the sequences of proteins in these tests, tags left out.
UniProt P06493: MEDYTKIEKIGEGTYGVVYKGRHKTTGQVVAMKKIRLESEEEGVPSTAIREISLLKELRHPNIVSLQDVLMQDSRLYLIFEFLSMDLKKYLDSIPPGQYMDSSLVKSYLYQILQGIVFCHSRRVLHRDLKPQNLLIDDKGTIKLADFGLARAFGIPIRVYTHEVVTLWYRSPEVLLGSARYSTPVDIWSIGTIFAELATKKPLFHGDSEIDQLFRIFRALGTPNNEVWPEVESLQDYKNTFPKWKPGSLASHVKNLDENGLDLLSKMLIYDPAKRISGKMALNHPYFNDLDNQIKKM


What was measured:
[1] = target: Cdk1 protein (UniProt P06493); assay: Co-IP from transfected U2OS extracts with Cdk1 antibody, Western blot with T7 tag antibody
[2] = target: T1, endogenous FoxM1B protein of mouse liver and mouse embryo fibroblasts (mouse); assay: Co-IP of liver or MEF extracts with p19ARF antibody, Western blot with mouse FoxM1B antibody

Row | binding [1] | binding [2] | Binder
1 | binds | – | T7-FoxM1B T585A mutant protein (protein, not shown: small tags and cut ends) MKTSPRRPLILKRRRLPLPVQNAPSETSEEEPKRSPAQQESNQAEASKEVAESNSCKFPAGIKIINHPTMPNTQVVAIPNNANIHSIITALTAKGKESGSSGPNKFILISCGGAPTQPPGLRPQTQTSYDAKRTEVTLETLGPKPAARDVNLPRPPGALCEQKRETCADGEAAGCTINNSLSNIQWLRKMSSDGLGSRSIKQEMEEKENCHLEQRQVKVEEPSRPSASWQNSVSERPPYSYMAMIQFAINSTERKRMTLKDIYTWIEDHFPYFKHIAKPGWKNSIRHNLSLHDMFVRETSANGKVSFWTIHPSANRYLTLDQVFKQQKRPNPELRRNMTIKTELPLGARRKMKPLLPRVSSYLVPIQFPVNQSLVLQPSVKVPLPLAASLMSSELARHSKRVRIAPKVLLAEEGIAPLSSAGPGKEEKLLFGEGFSPLLPVQTIKEEEIQPGEEMPHLARPIKVESPPLEEWPSPAPSFKEESSHSWEDSSQSPTPRPKKSYSGLRSPTRCVSEMLVIQHRERRERSRSRRKQHLLPPCVDEPELLFSEGPSTSRWAAELPFPADSSDPASQLSYSQEVGGPFKAPIKETLPISSTPSKSVLPRTPESWRLTPPAKVGGLDFSPVQTSQGASDPLPDPLGLMDLSTTPLQSAPPLESPQRLLSSEPLDLISVPFGNSSPSDIDVPKPGSPEPQVSGLAANRSLTEGLVLDTMNDSLSKILLDISFPGLDEDPLGPDNINWSQFIPELQ
2 | binds | – | T7-FoxM1B S657A mutant protein (protein, not shown: small tags and cut ends) MKTSPRRPLILKRRRLPLPVQNAPSETSEEEPKRSPAQQESNQAEASKEVAESNSCKFPAGIKIINHPTMPNTQVVAIPNNANIHSIITALTAKGKESGSSGPNKFILISCGGAPTQPPGLRPQTQTSYDAKRTEVTLETLGPKPAARDVNLPRPPGALCEQKRETCADGEAAGCTINNSLSNIQWLRKMSSDGLGSRSIKQEMEEKENCHLEQRQVKVEEPSRPSASWQNSVSERPPYSYMAMIQFAINSTERKRMTLKDIYTWIEDHFPYFKHIAKPGWKNSIRHNLSLHDMFVRETSANGKVSFWTIHPSANRYLTLDQVFKQQKRPNPELRRNMTIKTELPLGARRKMKPLLPRVSSYLVPIQFPVNQSLVLQPSVKVPLPLAASLMSSELARHSKRVRIAPKVLLAEEGIAPLSSAGPGKEEKLLFGEGFSPLLPVQTIKEEEIQPGEEMPHLARPIKVESPPLEEWPSPAPSFKEESSHSWEDSSQSPTPRPKKSYSGLRSPTRCVSEMLVIQHRERRERSRSRRKQHLLPPCVDEPELLFSEGPSTSRWAAELPFPADSSDPASQLSYSQEVGGPFKTPIKETLPISSTPSKSVLPRTPESWRLTPPAKVGGLDFSPVQTSQGASDPLPDPLGLMDLSTTPLQSAPPLEAPQRLLSSEPLDLISVPFGNSSPSDIDVPKPGSPEPQVSGLAANRSLTEGLVLDTMNDSLSKILLDISFPGLDEDPLGPDNINWSQFIPELQ
3 | binds | – | T7-FoxM1B T596A mutant protein (protein, not shown: small tags and cut ends) MKTSPRRPLILKRRRLPLPVQNAPSETSEEEPKRSPAQQESNQAEASKEVAESNSCKFPAGIKIINHPTMPNTQVVAIPNNANIHSIITALTAKGKESGSSGPNKFILISCGGAPTQPPGLRPQTQTSYDAKRTEVTLETLGPKPAARDVNLPRPPGALCEQKRETCADGEAAGCTINNSLSNIQWLRKMSSDGLGSRSIKQEMEEKENCHLEQRQVKVEEPSRPSASWQNSVSERPPYSYMAMIQFAINSTERKRMTLKDIYTWIEDHFPYFKHIAKPGWKNSIRHNLSLHDMFVRETSANGKVSFWTIHPSANRYLTLDQVFKQQKRPNPELRRNMTIKTELPLGARRKMKPLLPRVSSYLVPIQFPVNQSLVLQPSVKVPLPLAASLMSSELARHSKRVRIAPKVLLAEEGIAPLSSAGPGKEEKLLFGEGFSPLLPVQTIKEEEIQPGEEMPHLARPIKVESPPLEEWPSPAPSFKEESSHSWEDSSQSPTPRPKKSYSGLRSPTRCVSEMLVIQHRERRERSRSRRKQHLLPPCVDEPELLFSEGPSTSRWAAELPFPADSSDPASQLSYSQEVGGPFKTPIKETLPISSAPSKSVLPRTPESWRLTPPAKVGGLDFSPVQTSQGASDPLPDPLGLMDLSTTPLQSAPPLESPQRLLSSEPLDLISVPFGNSSPSDIDVPKPGSPEPQVSGLAANRSLTEGLVLDTMNDSLSKILLDISFPGLDEDPLGPDNINWSQFIPELQ
4 | – | binds | endogenous p19^ARF tumor suppressor protein of mouse liver and mouse embryo fibroblasts (protein, UniProt Q64364 1-169, looked up) MGRRFLVTVRIQRAGRPLQERVFLVKFVRSRRPRTASCALAFVNMLLRLERILRRGPHRNPGPGDDDGQRSRSSSSAQLRCRFELRGPHYLLPPGARRSAGRLPGHAGGAARVRGSAGCARCLGSPAARLGPRAGTSRHRAIFAFRWVLFVFRWVVFVYRWERRPDRRA

— patent publication US20050032692A1
